Data taken from doi:10.1101/2023.12.07.570680.
No constants are given. Whether binding was seen depends on the method and setting. For some assays here: Binding seen in cells or lysates may run through a third protein. Some binding calls cover weakened binding; strength is not graded here. Sequences can lack the tags named with a protein.

Key:
[1] = target: T1, CFM2 (yeast two-hybrid fusion, transit peptide removed) (Arabidopsis thaliana) (UniProt Q8L7C2); assay: two-hybrid
T1 sequence: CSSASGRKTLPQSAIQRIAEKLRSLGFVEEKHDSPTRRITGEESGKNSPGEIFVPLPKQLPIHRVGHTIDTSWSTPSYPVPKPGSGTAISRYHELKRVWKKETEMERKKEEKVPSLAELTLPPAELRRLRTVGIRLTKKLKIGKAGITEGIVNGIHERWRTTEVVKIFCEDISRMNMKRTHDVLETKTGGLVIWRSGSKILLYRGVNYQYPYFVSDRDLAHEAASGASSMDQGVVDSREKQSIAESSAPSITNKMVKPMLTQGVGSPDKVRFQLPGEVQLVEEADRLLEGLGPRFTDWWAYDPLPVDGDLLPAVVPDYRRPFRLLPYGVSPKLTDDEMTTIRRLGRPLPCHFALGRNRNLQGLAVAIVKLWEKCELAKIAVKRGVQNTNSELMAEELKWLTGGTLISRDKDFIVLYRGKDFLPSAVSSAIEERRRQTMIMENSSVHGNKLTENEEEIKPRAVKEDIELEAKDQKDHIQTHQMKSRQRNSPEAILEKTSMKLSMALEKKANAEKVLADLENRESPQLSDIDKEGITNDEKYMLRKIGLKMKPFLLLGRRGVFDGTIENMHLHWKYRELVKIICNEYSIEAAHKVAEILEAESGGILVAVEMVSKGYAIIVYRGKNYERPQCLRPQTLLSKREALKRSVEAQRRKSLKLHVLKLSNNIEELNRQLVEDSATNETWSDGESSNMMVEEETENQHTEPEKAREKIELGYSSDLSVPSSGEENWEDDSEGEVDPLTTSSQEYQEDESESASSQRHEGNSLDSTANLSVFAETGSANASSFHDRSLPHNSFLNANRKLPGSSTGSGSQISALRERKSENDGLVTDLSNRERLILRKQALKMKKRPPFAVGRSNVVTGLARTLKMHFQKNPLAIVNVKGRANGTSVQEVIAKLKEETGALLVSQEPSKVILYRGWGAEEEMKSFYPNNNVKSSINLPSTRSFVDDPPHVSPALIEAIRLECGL

[2] = target: T2, EMB1270 fused to C-terminal luciferase (EMB1270-cLUC) (Arabidopsis thaliana) (UniProt Q5G1S8); assay: split reporter
T2 sequence: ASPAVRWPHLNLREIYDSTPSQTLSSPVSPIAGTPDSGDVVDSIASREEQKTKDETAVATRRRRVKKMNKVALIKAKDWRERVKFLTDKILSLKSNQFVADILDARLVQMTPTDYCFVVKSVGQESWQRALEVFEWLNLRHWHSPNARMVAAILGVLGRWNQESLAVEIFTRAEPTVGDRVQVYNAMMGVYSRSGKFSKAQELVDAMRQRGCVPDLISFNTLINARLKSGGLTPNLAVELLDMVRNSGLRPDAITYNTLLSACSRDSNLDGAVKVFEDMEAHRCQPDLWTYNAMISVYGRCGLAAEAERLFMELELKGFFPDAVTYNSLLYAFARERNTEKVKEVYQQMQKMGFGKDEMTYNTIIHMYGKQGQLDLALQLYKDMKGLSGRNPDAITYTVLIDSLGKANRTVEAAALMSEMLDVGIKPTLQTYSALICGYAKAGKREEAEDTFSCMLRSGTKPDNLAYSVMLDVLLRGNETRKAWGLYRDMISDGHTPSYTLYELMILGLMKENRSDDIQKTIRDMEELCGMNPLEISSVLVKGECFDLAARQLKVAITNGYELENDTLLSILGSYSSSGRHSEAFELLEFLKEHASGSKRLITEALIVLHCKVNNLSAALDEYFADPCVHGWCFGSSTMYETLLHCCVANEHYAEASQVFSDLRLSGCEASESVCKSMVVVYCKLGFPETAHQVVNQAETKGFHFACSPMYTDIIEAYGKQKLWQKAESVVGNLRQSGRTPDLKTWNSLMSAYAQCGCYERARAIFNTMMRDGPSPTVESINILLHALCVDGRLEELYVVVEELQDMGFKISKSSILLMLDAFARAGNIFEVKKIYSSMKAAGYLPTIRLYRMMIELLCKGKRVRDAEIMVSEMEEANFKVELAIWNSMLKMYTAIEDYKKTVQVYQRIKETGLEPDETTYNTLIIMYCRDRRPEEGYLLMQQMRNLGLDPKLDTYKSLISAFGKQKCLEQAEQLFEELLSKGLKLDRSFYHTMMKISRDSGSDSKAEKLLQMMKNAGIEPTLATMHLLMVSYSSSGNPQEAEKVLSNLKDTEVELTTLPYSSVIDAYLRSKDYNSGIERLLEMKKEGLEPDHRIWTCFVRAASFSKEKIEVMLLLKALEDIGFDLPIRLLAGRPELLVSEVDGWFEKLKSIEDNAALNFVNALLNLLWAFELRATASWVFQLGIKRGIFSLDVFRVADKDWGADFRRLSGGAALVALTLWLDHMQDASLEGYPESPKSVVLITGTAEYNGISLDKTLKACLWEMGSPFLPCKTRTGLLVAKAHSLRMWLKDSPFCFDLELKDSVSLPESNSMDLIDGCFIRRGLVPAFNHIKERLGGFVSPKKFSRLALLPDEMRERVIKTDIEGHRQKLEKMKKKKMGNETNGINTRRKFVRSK

B1: EMB1006-NT (EMB1006 amino acids 44-273, Non-PPR domain) (domain or fragment, UniProt Q9FGR7 44-273)
chain: SATSPSSSSSSPSIFLSCFDDALPDKIQQPENSTINSEESECEEEDDEEGDDFTDPILKFFKSRTLTSESTADPARESKFSLQKNRRTSWHLAPDFADPETEIESKPEESVFVTNQQTLGVHIPFESGVAREILELAKNLKENQTLGEMLSGFERRVSDTECVEALVMMGESGFVKSCLYFYEWMSLQEPSLASPRACSVLFTLLGRERMADYILLLLSNLPDKEEFRDV
[1]
  binding: binds

B2: CFM2 fused to N-terminal luciferase (CFM2-nLUC) (protein, UniProt Q8L7C2 46-1011)
chain: CSSASGRKTLPQSAIQRIAEKLRSLGFVEEKHDSPTRRITGEESGKNSPGEIFVPLPKQLPIHRVGHTIDTSWSTPSYPVPKPGSGTAISRYHELKRVWKKETEMERKKEEKVPSLAELTLPPAELRRLRTVGIRLTKKLKIGKAGITEGIVNGIHERWRTTEVVKIFCEDISRMNMKRTHDVLETKTGGLVIWRSGSKILLYRGVNYQYPYFVSDRDLAHEAASGASSMDQGVVDSREKQSIAESSAPSITNKMVKPMLTQGVGSPDKVRFQLPGEVQLVEEADRLLEGLGPRFTDWWAYDPLPVDGDLLPAVVPDYRRPFRLLPYGVSPKLTDDEMTTIRRLGRPLPCHFALGRNRNLQGLAVAIVKLWEKCELAKIAVKRGVQNTNSELMAEELKWLTGGTLISRDKDFIVLYRGKDFLPSAVSSAIEERRRQTMIMENSSVHGNKLTENEEEIKPRAVKEDIELEAKDQKDHIQTHQMKSRQRNSPEAILEKTSMKLSMALEKKANAEKVLADLENRESPQLSDIDKEGITNDEKYMLRKIGLKMKPFLLLGRRGVFDGTIENMHLHWKYRELVKIICNEYSIEAAHKVAEILEAESGGILVAVEMVSKGYAIIVYRGKNYERPQCLRPQTLLSKREALKRSVEAQRRKSLKLHVLKLSNNIEELNRQLVEDSATNETWSDGESSNMMVEEETENQHTEPEKAREKIELGYSSDLSVPSSGEENWEDDSEGEVDPLTTSSQEYQEDESESASSQRHEGNSLDSTANLSVFAETGSANASSFHDRSLPHNSFLNANRKLPGSSTGSGSQISALRERKSENDGLVTDLSNRERLILRKQALKMKKRPPFAVGRSNVVTGLARTLKMHFQKNPLAIVNVKGRANGTSVQEVIAKLKEETGALLVSQEPSKVILYRGWGAEEEMKSFYPNNNVKSSINLPSTRSFVDDPPHVSPALIEAIRLECGL
[2]
  binding: binds
